These are yes or no findings as the source states them, for the method shown. In cells and extracts the contact can be indirect. Binding calls can cover weak binding; strength is not graded here. Where a sequence is shown, tags or fusion partners need not be part of it.
Key:
Assay in all cases: co-IP; HEK293 cells co-transfected with bait and candidate (GFP-tagged bait with HA- or HA-Flag-tagged candidate, GFP-TRAP beads; or HA-Flag-tagged bait with GFP-tagged candidate, anti-Flag antibody); lysates treated with RNase A/T1; Western blot with anti-HA and anti-GFP
[1] = target: T1, Glo (tagged, expressed in HEK293 cells) (Drosophila melanogaster) (UniProt Q9VGH5)
T1 sequence: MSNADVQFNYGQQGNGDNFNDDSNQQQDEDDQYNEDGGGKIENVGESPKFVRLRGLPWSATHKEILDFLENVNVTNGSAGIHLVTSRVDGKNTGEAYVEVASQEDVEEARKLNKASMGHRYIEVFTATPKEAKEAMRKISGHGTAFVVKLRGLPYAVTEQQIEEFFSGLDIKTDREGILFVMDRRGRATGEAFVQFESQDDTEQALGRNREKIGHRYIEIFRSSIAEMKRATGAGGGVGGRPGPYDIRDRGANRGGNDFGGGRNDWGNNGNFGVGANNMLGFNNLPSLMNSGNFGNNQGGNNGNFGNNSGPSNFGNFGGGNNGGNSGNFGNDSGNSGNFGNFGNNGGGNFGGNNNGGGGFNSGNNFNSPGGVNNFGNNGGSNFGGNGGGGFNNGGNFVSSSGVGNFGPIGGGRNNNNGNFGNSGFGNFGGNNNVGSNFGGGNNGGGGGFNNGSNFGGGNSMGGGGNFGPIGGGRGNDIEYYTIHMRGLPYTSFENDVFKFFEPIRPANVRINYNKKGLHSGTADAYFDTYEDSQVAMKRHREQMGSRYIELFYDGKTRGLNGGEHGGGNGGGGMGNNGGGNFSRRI

Chains of the proteins cited; added tags and fusions are not shown. Lines headed by an entry give the natural chain unless they say otherwise; changes in a name come on top.
UniProt Q9V3W7: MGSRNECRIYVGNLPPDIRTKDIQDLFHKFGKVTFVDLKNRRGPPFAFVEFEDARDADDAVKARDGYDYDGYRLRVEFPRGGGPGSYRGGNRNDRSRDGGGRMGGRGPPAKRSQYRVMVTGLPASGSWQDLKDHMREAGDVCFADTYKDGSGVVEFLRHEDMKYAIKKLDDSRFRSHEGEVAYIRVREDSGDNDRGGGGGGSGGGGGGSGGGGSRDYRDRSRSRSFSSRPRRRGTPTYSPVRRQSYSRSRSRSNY

[2] = target: T2, Hrp48 (tagged, expressed in HEK293 cells) (Drosophila melanogaster) (UniProt P48809)
T2 sequence: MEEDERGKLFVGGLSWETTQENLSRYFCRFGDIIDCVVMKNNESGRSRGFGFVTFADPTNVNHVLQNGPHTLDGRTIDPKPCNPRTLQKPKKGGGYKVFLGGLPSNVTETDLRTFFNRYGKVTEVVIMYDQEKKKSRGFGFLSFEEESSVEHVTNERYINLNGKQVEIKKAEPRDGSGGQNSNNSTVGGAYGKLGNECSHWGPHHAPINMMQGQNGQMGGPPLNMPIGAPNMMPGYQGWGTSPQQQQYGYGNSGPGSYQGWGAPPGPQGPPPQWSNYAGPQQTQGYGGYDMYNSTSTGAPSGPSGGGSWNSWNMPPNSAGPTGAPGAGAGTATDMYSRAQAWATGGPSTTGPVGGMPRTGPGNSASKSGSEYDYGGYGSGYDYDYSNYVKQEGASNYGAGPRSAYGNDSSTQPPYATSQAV

[3] = target: T3, Stau (tagged, expressed in HEK293 cells) (Drosophila melanogaster) (UniProt P25159)
T3 sequence: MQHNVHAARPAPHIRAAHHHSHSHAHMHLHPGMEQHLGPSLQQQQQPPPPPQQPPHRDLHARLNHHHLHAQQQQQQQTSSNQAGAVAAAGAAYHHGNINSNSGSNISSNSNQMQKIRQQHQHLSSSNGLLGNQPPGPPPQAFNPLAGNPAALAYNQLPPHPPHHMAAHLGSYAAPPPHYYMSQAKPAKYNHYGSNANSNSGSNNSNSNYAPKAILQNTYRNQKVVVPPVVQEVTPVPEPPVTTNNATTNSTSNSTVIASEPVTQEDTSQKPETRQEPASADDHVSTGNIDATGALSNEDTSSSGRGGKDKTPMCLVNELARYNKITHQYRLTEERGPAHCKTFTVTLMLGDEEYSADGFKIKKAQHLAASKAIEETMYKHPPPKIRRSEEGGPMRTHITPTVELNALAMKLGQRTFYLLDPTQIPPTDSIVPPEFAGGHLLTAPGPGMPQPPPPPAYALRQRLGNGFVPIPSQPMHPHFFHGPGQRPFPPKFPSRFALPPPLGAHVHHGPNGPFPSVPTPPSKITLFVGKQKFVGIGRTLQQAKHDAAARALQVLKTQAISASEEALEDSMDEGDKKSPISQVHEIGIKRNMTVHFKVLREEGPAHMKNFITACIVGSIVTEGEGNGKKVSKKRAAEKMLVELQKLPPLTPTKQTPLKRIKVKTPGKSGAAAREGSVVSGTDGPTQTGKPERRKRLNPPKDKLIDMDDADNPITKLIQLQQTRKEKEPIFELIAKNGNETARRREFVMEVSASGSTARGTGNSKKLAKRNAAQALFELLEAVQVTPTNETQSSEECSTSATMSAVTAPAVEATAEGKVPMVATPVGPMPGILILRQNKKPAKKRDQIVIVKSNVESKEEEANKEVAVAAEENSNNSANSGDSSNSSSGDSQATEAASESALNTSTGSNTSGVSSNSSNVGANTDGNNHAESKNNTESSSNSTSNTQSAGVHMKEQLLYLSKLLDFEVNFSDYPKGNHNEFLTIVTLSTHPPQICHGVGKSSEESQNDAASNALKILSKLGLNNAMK

binding [1] | binding [2] | binding [3] | Substance
binds |  |  | CG10077 (tagged, expressed in HEK293 cells) (Drosophila melanogaster)
binds | binds |  | Mahe (tagged, expressed in HEK293 cells) (Drosophila melanogaster)
binds |  | binds | SC35 (tagged, expressed in HEK293 cells) (Drosophila melanogaster)
binds |  | binds | SF2 (tagged, expressed in HEK293 cells) (from UniProt Q9V3W7)
